PubChem BioAssay AID1259308 – NCATS, 2017

- Aim: 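Knock-downs that increase output of a recombinant reporter protein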 (primary screen)
- Cell system: human HEK293 embryonic kidney cells stably expressing firefly luciferase (HEK-CMV-Luc2-Hygro)
- Reagent: single siRNA against human genes, 0.8 pmol siRNA per well
- Time to read-out: 72 h
- Read-out: 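Luciferase light (ONE-Glo) measured on one replicate plate set and viability (CellTiter-Glo) on the other, scaled to a negative control siRNA, with robust z-scores and luciferase per cell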
- Direction: total luciferase, z-score: higher = more reporter protein produced
- Call rule: 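An siRNA counts as active if its total luciferase robust z-score exceeds 3; genes with two or more such siRNAs out of three were retested with fresh siRNAs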
- Meaning of the calls: active = raised luciferase; inactive = no rise
Shown is a random part of about 59,000 reagents. About 1,510 of all reagents (2.6%) were called active. 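Calls use total luciferase alone and ignore viability, so some active siRNAs may act by altering cell number.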 Further read-outs or replicates are left out here.

{"target": "LOC644285", "PubChem SID": "SID160769174", "total luciferase, z-score": 0.968, "Outcome": "inactive"}
{"target": "LOC644285", "PubChem SID": "SID160769175", "total luciferase, z-score": 0.792, "Outcome": "inactive"}
{"target": "LOC644285", "PubChem SID": "SID160769176", "total luciferase, z-score": 1.74, "Outcome": "inactive"}
{"target": "SLC35B4", "PubChem SID": "SID160752921", "total luciferase, z-score": 0.654, "Outcome": "inactive"}
{"target": "SLC35B4", "PubChem SID": "SID160752922", "total luciferase, z-score": -0.542, "Outcome": "inactive"}
{"target": "SLC35B4", "PubChem SID": "SID160752923", "total luciferase, z-score": -1.12, "Outcome": "inactive"}
{"target": "ATP5PD", "PubChem SID": "SID160728521", "total luciferase, z-score": 1.18, "Outcome": "inactive"}
{"target": "ATP5PD", "PubChem SID": "SID160728522", "total luciferase, z-score": -1.48, "Outcome": "inactive"}
{"target": "ATP5PD", "PubChem SID": "SID160732281", "total luciferase, z-score": 2.42, "Outcome": "inactive"}
{"target": "RBM28", "PubChem SID": "SID160743016", "total luciferase, z-score": -0.32, "Outcome": "inactive"}
{"target": "RBM28", "PubChem SID": "SID160743017", "total luciferase, z-score": -1.09, "Outcome": "inactive"}
{"target": "RBM28", "PubChem SID": "SID160743018", "total luciferase, z-score": -1.06, "Outcome": "inactive"}
{"target": "SEL1L3", "PubChem SID": "SID160735779", "total luciferase, z-score": -0.647, "Outcome": "inactive"}
{"target": "SEL1L3", "PubChem SID": "SID160735780", "total luciferase, z-score": 1.01, "Outcome": "inactive"}
{"target": "SEL1L3", "PubChem SID": "SID160735781", "total luciferase, z-score": -0.0123, "Outcome": "inactive"}
{"target": "MINK1", "PubChem SID": "SID160739607", "total luciferase, z-score": -0.739, "Outcome": "inactive"}
{"target": "MINK1", "PubChem SID": "SID160739608", "total luciferase, z-score": 0.175, "Outcome": "inactive"}
{"target": "MINK1", "PubChem SID": "SID160739609", "total luciferase, z-score": -1.37, "Outcome": "inactive"}
{"target": "IPO5", "PubChem SID": "SID160776364", "total luciferase, z-score": -0.356, "Outcome": "inactive"}
{"target": "IPO5", "PubChem SID": "SID160776365", "total luciferase, z-score": -0.593, "Outcome": "inactive"}
{"target": "IPO5", "PubChem SID": "SID160776366", "total luciferase, z-score": -0.766, "Outcome": "inactive"}
{"target": "NANOG", "PubChem SID": "SID160749780", "total luciferase, z-score": 0.663, "Outcome": "inactive"}
{"target": "NANOG", "PubChem SID": "SID160749782", "total luciferase, z-score": 1.99, "Outcome": "inactive"}
{"target": "NANOG", "PubChem SID": "SID160749783", "total luciferase, z-score": 0.125, "Outcome": "inactive"}
{"target": "DISP2", "PubChem SID": "SID160753318", "total luciferase, z-score": -0.692, "Outcome": "inactive"}
{"target": "DISP2", "PubChem SID": "SID160753319", "total luciferase, z-score": -0.557, "Outcome": "inactive"}
{"target": "DISP2", "PubChem SID": "SID160753320", "total luciferase, z-score": -1.29, "Outcome": "inactive"}
{"target": "MOAP1", "PubChem SID": "SID160747477", "total luciferase, z-score": 1.21, "Outcome": "inactive"}
{"target": "MOAP1", "PubChem SID": "SID160747479", "total luciferase, z-score": 0.115, "Outcome": "inactive"}
{"target": "MOAP1", "PubChem SID": "SID160747480", "total luciferase, z-score": -0.383, "Outcome": "inactive"}
{"target": "SCG5", "PubChem SID": "SID160716652", "total luciferase, z-score": 0.161, "Outcome": "inactive"}
{"target": "SCG5", "PubChem SID": "SID160716653", "total luciferase, z-score": 0.048, "Outcome": "inactive"}
{"target": "SCG5", "PubChem SID": "SID160716654", "total luciferase, z-score": -0.961, "Outcome": "inactive"}

Targets listed so far whose target name begins with A or a (3):
{"target": "ATP5PD", "PubChem SID": "SID160728521", "total luciferase, z-score": 1.18, "Outcome": "inactive"}
{"target": "ATP5PD", "PubChem SID": "SID160728522", "total luciferase, z-score": -1.48, "Outcome": "inactive"}
{"target": "ATP5PD", "PubChem SID": "SID160732281", "total luciferase, z-score": 2.42, "Outcome": "inactive"}
